Values quoted from earlier work, collected in patent publication US20130032547A1, “STABILIZATION AND DISINFECTION OF WASTES USING HIGH ENERGY E-BEAM AND CHEMICAL OXIDANTS” (priority 2011, published 2013).
Read-outs that look alike come from different tables or passages of the source.

Conditions: Kurucz et al., 1995, cited from earlier work

In the case of C=C(Cl)Cl [1,1 dichloroethene], the “% Removal” value (E-beam dose 8 kGy) is listed as over 99%.
For CC(Cl)(Cl)Cl [1,1,1 trichlooethane], the “% Removal” value (E-beam dose 6.5 kGy) is given as 89%.
For ClC=CCl [1,2 dichloroethene], the “% Removal” value (E-beam dose 8 kGy) is given as 60%.
In the case of BrC(Br)Br [Bromoform], the “% Removal” value (E-beam dose 0.8 kGy) is listed as over 99%.
In the case of ClC(Cl)(Cl)Cl [Carbon tetrachloride], the “% Removal” value (E-beam dose 0.8 kGy) is listed as over 99%.
For ClC(Cl)Cl [Chloroform], the “% Removal” value (E-beam dose 6 kGy) is given as 99%.
In the case of Clc1ccccc1 [Cholorbenzene], the “% Removal” value (E-beam dose 6.5 kGy) is given as 97%.
In the case of ClC1=C(Cl)[C@]2(Cl)[C@@H]3[C@@H]4C[C@@H]([C@H]5O[C@@H]45)[C@@H]3[C@@]1(Cl)C2(Cl)Cl [Dieldrin], the “% Removal” value (E-beam dose 8 kGy) is given as over 99%.
In the case of CCc1ccccc1 [Ethylbenzene], the “% Removal” value (E-beam dose 6.5 kGy) is given as 92%.
In the case of ClC(Cl)=C(Cl)Cl [Tetrachlorethylene (PCE)], the “% Removal” value (E-beam dose 5 kGy) is listed as over 99%.
In the case of Cc1ccccc1 [Toluene], the “% Removal” value (E-beam dose 6.5 kGy) is listed as 97%.
In the case of ClC=C(Cl)Cl [Trichloroethylene (TCE)], the “% Removal” value (E-beam dose 5 kGy) is given as over 99%.
